PubChem BioAssay AID504764 – Drosophila RNAi Screening Center, 2011

Test: 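Genes whose knock-down alters Notch-dependent transcription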 (primary screen)
Cell system: Drosophila Kc167 cells
Reagents: long dsRNA against Drosophila genes
Time to read-out: about 5 days (4 days dsRNA, then 24 h after transfection)
Conditions: transfection of constitutively active membrane-tethered Notch lacking the extracellular domain, read 24 h later
Read-out: 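Light from a Notch-responsive E(spl)m3 luciferase reporter under active Notch, with control-promoter and no-Notch reporter wells to normalise; raw counts from paired wells a and b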
Reading the numbers: induced reporter light, run 1, well a and induced reporter light, run 1, well b: higher = more light from the Notch target reporter with active Notch; control promoter light, run 1, well a and control promoter light, run 1, well b: higher = more light from the viral control promoter (cell number, transfection, viability); uninduced reporter light, run 1, well a: higher = more light from the Notch target reporter without active Notch
Call rule: 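Hit if the duplicate-averaged log2 ratio of induced to control-promoter light gives a plate-wise z beyond ±2, or induced to uninduced beyond ±1.8; weak-control or discordant-duplicate wells dropped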
Calls: active = modifier hit (raised or lowered Notch signal); inactive = not a hit
The screen tested about 22,000 reagents; below is an unselected part of those with a known target gene and a result. Over the whole deposit, 403 (1.9%) got an active call. 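Unnormalised raw counts per well; ratio z-scores behind the hit calls and whether each hit raises or lowers signal are not deposited.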 A plus sign joins genes that one reagent is predicted to hit. Not given: the amount of reagent.

| target | DRSC id | induced reporter light, run 1, well a | induced reporter light, run 1, well b | control promoter light, run 1, well a | control promoter light, run 1, well b | uninduced reporter light, run 1, well a | outcome |
| --- | --- | --- | --- | --- | --- | --- | --- |
| CG7213 | DRSC10787 | 2.34e5 | 2.04e5 | 3.64e5 | 2.61e5 | 8230 | inactive |
| CG15712 | DRSC06583 | 1.68e5 | 1.34e5 | 1.28e5 | 1.06e5 | 14550 | inactive |
| Itpr (Inositol 1,4,5,-trisphosphate receptor) | DRSC12354 | 61920 | 67760 | 63160 | 52895 | 5035 | inactive |
| Pvf2 (PDGF- and VEGF-related factor 2) | DRSC00968 | 1.53e5 | 1.42e5 | 2.19e5 | 2.20e5 | 10135 | inactive |
| Pvf2 (PDGF- and VEGF-related factor 2) | DRSC02283 | 71595 | 43160 | 55815 | 53535 | 3488 | inactive |
| SdhA (Succinate dehydrogenase, subunit A (flavoprotein)) | DRSC07547 | 1.03e5 | 1.01e5 | 2.15e5 | 2.04e5 | 9170 | inactive |
| Bro | DRSC08149 | 1.29e5 | 1.10e5 | 2.25e5 | 1.38e5 | 6220 | inactive |
| neur (neuralized) | DRSC17013 | 1.42e5 | 1.19e5 | 98605 | 82485 | 11100 | inactive |
| CG4313 | DRSC18514 | 1.52e5 | 1.87e5 | 1.82e5 | 2.30e5 | 12960 | inactive |
| slx1 (nuclease slx1) | DRSC12290 | 1.07e5 | 1.12e5 | 97155 | 93650 | 6310 | inactive |
| CG14050 | DRSC18594 | 1.49e5 | 1.20e5 | 2.17e5 | 1.81e5 | 8180 | inactive |
| ND-49L (NADH dehydrogenase (ubiquinone) 49 kDa subunit-like) | DRSC14437 | 1.41e5 | 1.32e5 | 1.55e5 | 1.73e5 | 11710 | inactive |
| LysD + LysB + LysC (retired record) | DRSC21249 | 1.26e5 | 1.25e5 | 1.23e5 | 1.29e5 | 9260 | inactive |
| ro (rough) | DRSC17046 | 1.06e5 | 1.09e5 | 1.24e5 | 1.20e5 | 13460 | inactive |
| UK114 | DRSC01973 | 1.42e5 | 1.77e5 | 1.61e5 | 1.88e5 | 11600 | inactive |
| CG30127 (retired record) | DRSC05785 | 79710 | 1.04e5 | 1.50e5 | 1.26e5 | 7355 | inactive |
| CG30127 (retired record) | DRSC05786 | 96690 | 1.01e5 | 1.75e5 | 1.41e5 | 10225 | inactive |
| CG31910 + snoRNA:Me28S-G2743 (retired record) | DRSC00946 | 1.11e5 | 97950 | 1.27e5 | 1.30e5 | 9305 | inactive |
| uri (unconventional prefoldin RPB5 interactor) | DRSC04111 | 1.67e5 | 1.61e5 | 1.57e5 | 1.67e5 | 13485 | inactive |
| Ant2 (Adenine nucleotide translocase 2) | DRSC19330 | 1.58e5 | 1.65e5 | 2.97e5 | 2.59e5 | 13345 | active |
| Gfrl (Glial cell line-derived neurotrophic family receptor-like) | DRSC15197 | 1.63e5 | 1.73e5 | 1.78e5 | 2.17e5 | 13880 | inactive |
| Gfrl (Glial cell line-derived neurotrophic family receptor-like) | DRSC15199 | 1.87e5 | 1.45e5 | 2.00e5 | 2.16e5 | 10790 | inactive |
| Gfrl (Glial cell line-derived neurotrophic family receptor-like) | DRSC15565 | 1.83e5 | 1.94e5 | 2.18e5 | 2.36e5 | 15192 | inactive |
| Gfrl (Glial cell line-derived neurotrophic family receptor-like) | DRSC15719 | 1.77e5 | 1.38e5 | 2.56e5 | 2.22e5 | 11475 | inactive |
| gkt (glaikit) | DRSC00821 | 1.64e5 | 1.08e5 | 1.67e5 | 1.40e5 | 9550 | inactive |
| CG10104 | DRSC05964 | 1.05e5 | 1.17e5 | 1.36e5 | 1.10e5 | 11050 | inactive |
| eIF2Bepsilon (eukaryotic translation initiation factor 2B subunit epsilon) | DRSC18769 | 1.19e5 | 1.31e5 | 1.76e5 | 1.75e5 | 7410 | inactive |
| DJ-1alpha | DRSC07005 | 66820 | 84585 | 1.10e5 | 1.17e5 | 8570 | inactive |
| CG8281 | DRSC10976 | 2.33e5 | 2.23e5 | 1.93e5 | 1.98e5 | 10685 | inactive |
| CG1246 | DRSC08275 | 1.17e5 | 86955 | 2.02e5 | 1.19e5 | 6290 | inactive |
| CG14882 | DRSC15006 | 1.83e5 | 2.03e5 | 2.47e5 | 2.66e5 | 18480 | inactive |
| Ugt49B1 (UDP-glycosyltransferase family 49 member B1) | DRSC04461 | 50360 | 42385 | 42910 | 42105 | 2132 | inactive |
| Nup62 (Nucleoporin 62kD) | DRSC06970 | 68695 | 73045 | 1.00e5 | 1.02e5 | 4982 | inactive |
| CG34193 | DRSC05665 | 1.20e5 | 1.26e5 | 2.06e5 | 1.84e5 | 10275 | inactive |
| CG2211 | DRSC08559 | 1.07e5 | 1.01e5 | 1.50e5 | 1.48e5 | 6845 | inactive |
| Rab3 | DRSC07523 | 96675 | 1.12e5 | 95710 | 93845 | 8905 | inactive |
| betaTry (betaTrypsin) | DRSC07582 | 1.04e5 | 1.03e5 | 1.26e5 | 1.22e5 | 9230 | inactive |
| CG13838 | DRSC14688 | 1.97e5 | 1.70e5 | 1.93e5 | 1.93e5 | 13410 | inactive |
| soti (scotti) | DRSC16432 | 1.69e5 | 1.70e5 | 1.12e5 | 1.12e5 | 11012 | inactive |
| Rsbp15 (Radial spoke binding protein 15) | DRSC14176 | 79380 | 74225 | 1.07e5 | 61805 | 2592 | inactive |
| mRpL16 (mitochondrial ribosomal protein L16) | DRSC18550 | 2.26e5 | 2.17e5 | 2.82e5 | 2.94e5 | 15945 | inactive |
| CG46491 | DRSC06565 | 79275 | 99835 | 1.84e5 | 2.76e5 | 10900 | active |
| CG46491 | DRSC06566 | 1.09e5 | 83765 | 1.07e5 | 1.22e5 | 7710 | inactive |
| CG34376 | DRSC14695 | 1.36e5 | 1.26e5 | 1.34e5 | 1.32e5 | 9565 | inactive |
| CG34376 | DRSC14696 | 1.56e5 | 1.35e5 | 2.04e5 | 1.82e5 | 12950 | inactive |
| CG34376 | DRSC14701 | 1.75e5 | 1.80e5 | 1.87e5 | 1.60e5 | 13510 | inactive |
| GILT2 (Gamma-interferon-inducible lysosomal thiol reductase 2) | DRSC14196 | 1.81e5 | 1.85e5 | 2.54e5 | 2.33e5 | 15810 | inactive |
| SmydA-4 (SET and MYND domain containing, arthropod-specific, member 4) | DRSC19390 | 1.41e5 | 1.30e5 | 2.68e5 | 2.15e5 | 9600 | inactive |
| CG32650 | DRSC19899 | 1.77e5 | 1.54e5 | 2.39e5 | 2.31e5 | 14555 | inactive |
| CG13627 | DRSC14629 | 1.51e5 | 1.45e5 | 2.04e5 | 1.72e5 | 13410 | inactive |
| CG32700 | DRSC17857 | 1.18e5 | 1.12e5 | 1.88e5 | 2.38e5 | 8460 | inactive |
| CG32700 | DRSC17858 | 1.24e5 | 1.33e5 | 2.31e5 | 1.67e5 | 10160 | inactive |
| CG6893 | DRSC10742 | 2.50e5 | 2.31e5 | 2.80e5 | 2.95e5 | 13405 | inactive |
| Tbcb (Tubulin-binding cofactor B) | DRSC06067 | 83065 | 77080 | 1.53e5 | 1.74e5 | 5760 | inactive |
| CG9801 | DRSC16568 | 1.30e5 | 1.19e5 | 99570 | 74580 | 10620 | inactive |
| CG12374 | DRSC06143 | 86255 | 1.09e5 | 1.48e5 | 1.24e5 | 9045 | inactive |
| CG4324 | DRSC04462 | 1.44e5 | 1.50e5 | 1.56e5 | 1.33e5 | 10000 | inactive |
| CG9875 | DRSC04585 | 2.17e5 | 1.83e5 | 1.91e5 | 1.55e5 | 15790 | inactive |
| CG30492 (retired record) + M7BP | DRSC05053 | 66200 | 62815 | 94175 | 78860 | 3060 | inactive |
| CG30492 (retired record) + M7BP | DRSC05054 | 51180 | 72085 | 63965 | 57490 | 3480 | inactive |
| CG30492 (retired record) + M7BP | DRSC05055 | 88335 | 87005 | 1.04e5 | 1.16e5 | 3940 | inactive |
| CG30492 (retired record) + M7BP | DRSC06701 | 2.30e5 | 1.75e5 | 2.82e5 | 2.55e5 | 15565 | inactive |
| CG30492 (retired record) + M7BP | DRSC06816 | 2.03e5 | 1.55e5 | 2.25e5 | 2.16e5 | 13635 | inactive |
| Vha36-1 (Vacuolar H[+] ATPase 36kD subunit 1) | DRSC07098 | 1.28e5 | 1.34e5 | 2.19e5 | 2.65e5 | 10130 | inactive |

7 entries from above, limited to “induced reporter light, run 1, well a”.
Itpr (Inositol 1,4,5,-trisphosphate receptor) [DRSC12354]	61920
Pvf2 (PDGF- and VEGF-related factor 2) [DRSC00968]	1.53e5
Pvf2 (PDGF- and VEGF-related factor 2) [DRSC02283]	71595
SdhA (Succinate dehydrogenase, subunit A (flavoprotein)) [DRSC07547]	1.03e5
Bro [DRSC08149]	1.29e5
neur (neuralized) [DRSC17013]	1.42e5
CG4313 [DRSC18514]	1.52e5
